In the supplement of paper PMC9015667:
Where a name gives a salt, the structure may show the parent alone. Some of the results follow. Most values come without repeats; read them as rough.

Assays:
Test in all cases: reduction in cell viability relative to untreated/vehicle; higher = more growth inhibition
Conditions in all cases: 200 nM; 72 h
M229P = system: M229P (parental melanoma line)
M229R = system: M229R (matched melanoma line resistant to BRAF inhibitors)
M238P = system: M238P (parental melanoma line)
M238R = system: M238R (matched melanoma line resistant to BRAF inhibitors)
M249P = system: M249P (parental melanoma line)
M249R = system: M249R (matched melanoma line resistant to BRAF inhibitors)
UACC62P = system: UACC62P (parental melanoma line)
UACC62R = system: UACC62R (matched melanoma line resistant to BRAF inhibitors)

Compound | reduction in cell viability (M229P) [%] | reduction in cell viability (M229R) [%] | reduction in cell viability (M238P) [%] | reduction in cell viability (M238R) [%] | reduction in cell viability (M249P) [%] | reduction in cell viability (M249R) [%] | reduction in cell viability (UACC62P) [%] | reduction in cell viability (UACC62R) [%]
CO[C@H]1C[C@@H]2CC[C@@H](C)[C@@](O)(O2)C(=O)C(=O)N2CCCC[C@H]2C(=O)O[C@H]([C@H](C)C[C@@H]2CC[C@@H](OP(C)(C)=O)[C@H](OC)C2)CC(=O)[C@H](C)/C=C(\C)[C@@H](O)[C@@H](OC)C(=O)[C@H](C)C[C@H](C)/C=C/C=C/C=C/1C [Ridaforolimus] | < 0 | 8.1 | 9.27 | 18.8 | 12.8 | 6.03 | 20 | 15.6
CC(C)c1cc(C(C)C)c(CC(=O)NS(=O)(=O)Oc2c(C(C)C)cccc2C(C)C)c(C(C)C)c1 [Avasimibe] | < 0 | < 0 | < 0 | < 0 | < 0 | < 0 | < 0 | < 0
CC(S)C(=O)NCC(=O)O (stereo not drawn) [Tiopronin] | < 0 | < 0 | < 0 | < 0 | < 0 | < 0 | < 0 | < 0
Cc1cncc2cccc(S(=O)(=O)N3CCCN(C(=O)CN)C[C@@H]3C)c12 [Glycyl-H-1152] | < 0 | < 0 | < 0 | < 0 | < 0 | < 0 | < 0 | < 0
O=c1c(-c2ccc(O)cc2)coc2cc(O[C@@H]3O[C@H](CO)[C@@H](O)[C@H](O)[C@H]3O)ccc12 [Daidzin] | < 0 | < 0 | < 0 | < 0 | < 0 | < 0 | < 0 | < 0
C/C=C(/C)C(=O)O[C@H]1C(C)=C[C@]23C(=O)[C@@H](C=C(CO)[C@@H](O)[C@]12O)[C@H]1[C@@H](C[C@H]3C)C1(C)C [Ingenol mebutate] | 8.63 | 30 | 28.4 | 0.12 | < 0 | 3.33 | < 0 | 59.2
CC12CC3CC(C)(C1)CC(N)(C3)C2 [Memantine] | < 0 | < 0 | < 0 | < 0 | < 0 | < 0 | < 0 | < 0
COc1cccc(OC)c1-c1cc(C(=O)NC2(C(=O)O)C3CC4CC(C3)CC2C4)nn1-c1ccnc2cc(Cl)ccc12 (stereo not drawn) [Meclinertant] | < 0 | < 0 | < 0 | < 0 | < 0 | < 0 | < 0 | < 0
Cc1[nH]c2ccccc2c1CCNCc1ccc(/C=C/C(=O)NO)cc1 [Panobinostat (LBH589)] | 94.4 | 78.3 | 89.9 | 86.2 | 88.9 | 95.4 | 88.8 | 96.3
N=C(N)c1ccc(OCCCCCOc2ccc(C(=N)N)cc2)cc1 [Pentamidine isethionate] | < 0 | < 0 | < 0 | < 0 | < 0 | < 0 | < 0 | < 0
CN1c2ccccc2C(=O)N2CCc3c([nH]c4ccccc34)C21 (stereo in doubt) [Evodiamine] | 12.8 | 29.9 | 36.1 | 3.9 | 6.22 | 15.1 | 16.4 | 47.2
OC[C@@H](O)[C@@H](O)[C@@H](O)CO [Ribitol] | < 0 | < 0 | < 0 | < 0 | < 0 | < 0 | < 0 | < 0
CC(=O)NC[C@H]1CN(c2ccc(N3CCOCC3)c(F)c2)C(=O)O1 [Linezolid] | < 0 | < 0 | < 0 | < 0 | < 0 | < 0 | < 0 | < 0
COc1c(O)cc2c(c1O)[C@@H]1O[C@H](CO)[C@@H](O)[C@H](O)[C@H]1OC2=O [Bergenin] | < 0 | < 0 | < 0 | < 0 | < 0 | < 0 | < 0 | < 0
Nc1nc(=O)c2c([nH]1)NCC(CNc1ccc(C(=O)N[C@@H](CCC(=O)O)C(=O)O)cc1)N2C=O (stereo partly drawn) [Calcium folinate] | < 0 | < 0 | < 0 | < 0 | < 0 | < 0 | < 0 | < 0
COc1cc(N2CCN(C)CC2)ccc1Nc1nc(N)c(C(=O)c2c(Cl)cccc2Cl)s1 | < 0 | < 0 | < 0 | < 0 | < 0 | < 0 | < 0 | < 0
COc1ccc(-c2oc3c(CC=C(C)C)c(O[C@@H]4O[C@H](CO)[C@@H](O)[C@H](O)[C@H]4O)cc(O)c3c(=O)c2O[C@@H]2O[C@@H](C)[C@H](O)[C@@H](O)[C@H]2O)cc1 [Icariin] | < 0 | < 0 | < 0 | < 0 | < 0 | < 0 | < 0 | < 0
O=C(O)CC/C=C\CC[C@@H]1[C@@H](N2CCCCC2)[C@@H](O)C[C@@H]1OCc1ccc(-c2ccccc2)cc1 [Vapiprost hydrochloride] | < 0 | < 0 | < 0 | < 0 | < 0 | < 0 | < 0 | < 0
Nc1ccc(-c2ccc3ncc4ccc(=O)n(-c5cccc(C(F)(F)F)c5)c4c3c2)cn1 [Torin-2] | 91 | 85.3 | 79.1 | 55.8 | 83.6 | 82.5 | 84.8 | 80.4
CN(C)c1ccc(-c2nc3ncc(Cl)c(N4CCN(CC(=O)Nc5nccs5)CC4)c3[nH]2)cc1 | < 0 | < 0 | < 0 | < 0 | 13.6 | < 0 | 25.9 | 11.7
CNC(=O)CN1CCC(Oc2cc3c(Nc4cccc(Cl)c4F)ncnc3cc2OC)CC1 [Sapitinib] | < 0 | < 0 | < 0 | < 0 | < 0 | < 0 | 4.86 | < 0

Compound | reduction in cell viability (M229P) [%] | reduction in cell viability (M229R) [%] | reduction in cell viability (M238P) [%] | reduction in cell viability (M238R) [%] | reduction in cell viability (M249P) [%] | reduction in cell viability (M249R) [%] | reduction in cell viability (UACC62P) [%] | reduction in cell viability (UACC62R) [%]
Nc1nccc(-c2ccc3noc(-c4ccc(Cl)cc4)c3c2)n1 [Pim 1 inhibitor 2] | < 0 | < 0 | < 0 | < 0 | < 0 | < 0 | < 0 | < 0
CC(C)c1cc(C(=O)N2Cc3ccc(CN4CCN(C)CC4)cc3C2)c(O)cc1O | 58.2 | 67 | 52.3 | 46.2 | 31.3 | 37.4 | 62.5 | 66.9
C=C1/C(=C\C=C2/CCC[C@]3(C)[C@@H]([C@H](C)CCCC(C)(C)O)CC[C@@H]23)C[C@@H](O)C[C@@H]1O [Calcitriol] | < 0 | < 0 | < 0 | < 0 | < 0 | < 0 | < 0 | < 0
CNc1nc(-c2ccc3c(N)n[nH]c3c2)cc(N2C[C@@H](C(=O)NC3CCCCC3)CC[C@H]2C)n1 | < 0 | < 0 | < 0 | < 0 | < 0 | 1.96 | 2.12 | < 0
Nc1ncnc2nc(-c3ccc(N4CCOCC4)nc3)cc(-c3cccc(Br)c3)c12 | < 0 | < 0 | < 0 | < 0 | < 0 | < 0 | < 0 | < 0
Nc1ccc(S(=O)(=O)Nc2ccccn2)cc1 [Sulfapyridine] | < 0 | < 0 | < 0 | < 0 | < 0 | 15.9 | < 0 | < 0
OCc1ccc(-c2nn(Cc3ccccc3)c3ccccc23)o1 [Lificiguat] | < 0 | < 0 | < 0 | < 0 | < 0 | < 0 | 19.9 | < 0
NC(=O)c1ccc(I)c([N+](=O)[O-])c1 [Iniparib] | < 0 | < 0 | < 0 | < 0 | < 0 | < 0 | < 0 | < 0
Cc1ccc(NC(=O)C2(c3ccc4c(c3)OC(F)(F)O4)CC2)nc1-c1cccc(C(=O)O)c1 [Lumacaftor] | < 0 | < 0 | < 0 | < 0 | < 0 | < 0 | < 0 | < 0
CC1(C)CCC(CN2CCN(c3ccc(C(=O)NS(=O)(=O)c4ccc(NCC5CCOCC5)c([N+](=O)[O-])c4)c(Oc4cnc5[nH]ccc5c4)c3)CC2)=C(c2ccc(Cl)cc2)C1 | < 0 | 5.43 | < 0 | < 0 | < 0 | < 0 | < 0 | < 0
C[C@]12C=CC(=O)C=C1CC[C@@H]1[C@@H]2[C@@H](O)C[C@@]2(C)[C@H]1CC[C@]2(O)C(=O)CO [Prednisolone] | < 0 | < 0 | < 0 | < 0 | < 0 | < 0 | < 0 | < 0
COc1cc([C@@H]2c3cc4c(cc3[C@@H](O[C@@H]3O[C@@H]5CO[C@@H](C)O[C@H]5[C@H](O)[C@H]3O)[C@H]3COC(=O)[C@H]23)OCO4)cc(OC)c1O [Etoposide] | < 0 | 11.3 | 19.8 | 0.54 | 15.2 | 22.6 | 19.4 | 43.1
COC[C@H](NC(=O)c1cnc(C)s1)C(=O)N[C@@H](COC)C(=O)N[C@@H](Cc1ccccc1)C(=O)[C@@]1(C)CO1 [Oprozomib] | 89.3 | 87 | 87.7 | 86.2 | 84.3 | 92.3 | 81.2 | 80.5
CNC(=O)c1cccc(-c2ccc3c(N4CCOC[C@@H]4C)nc(N4CCOC[C@@H]4C)nc3n2)c1 | < 0 | 38.9 | 14 | 12.3 | 1.47 | 35.6 | 3.38 | 5.77
Clc1ccc(C(c2ccccc2Cl)C(Cl)Cl)cc1 (stereo not drawn) [Mitotane] | < 0 | < 0 | < 0 | < 0 | < 0 | < 0 | 2.34 | < 0
CC(C)(O)CC[C@@H](O)[C@](C)(O)[C@H]1CC[C@@]2(O)C3=CC(=O)[C@@H]4C[C@@H](O)[C@@H](O)C[C@]4(C)[C@H]3CC[C@]12C [20-hydroxyecdysone] | < 0 | < 0 | < 0 | < 0 | < 0 | < 0 | < 0 | < 0
O=C1NC(=O)/C(=C/c2ccc3nccc(-c4ccncc4)c3c2)S1 | < 0 | < 0 | 11.6 | < 0 | < 0 | < 0 | < 0 | < 0
C=CC(=O)Nc1ccc2ncnc(Nc3ccc(OCc4cccc(F)c4)c(Cl)c3)c2c1 | < 0 | < 0 | < 0 | 16.1 | < 0 | < 0 | 2.52 | < 0
O=C1CCc2cc(OCCCCc3nnnn3C3CCCCC3)ccc2N1 [Cilostazol] | < 0 | 19.2 | < 0 | < 0 | < 0 | < 0 | < 0 | < 0
Cc1c(-c2ccc(O)cc2)n(Cc2ccc(OCCN3CCCCCC3)cc2)c2ccc(O)cc12 [Bazedoxifene] | < 0 | < 0 | < 0 | < 0 | < 0 | < 0 | < 0 | < 0

Single records (already shown). Values in the order: reduction in cell viability (M229P) [%]	reduction in cell viability (M229R) [%]	reduction in cell viability (M238P) [%]	reduction in cell viability (M238R) [%]	reduction in cell viability (M249P) [%]	reduction in cell viability (M249R) [%]	reduction in cell viability (UACC62P) [%]	reduction in cell viability (UACC62R) [%]
Nc1nccc(-c2ccc3noc(-c4ccc(Cl)cc4)c3c2)n1 [Pim 1 inhibitor 2] is listed as < 0	< 0	< 0	< 0	< 0	< 0	< 0	< 0
NC(=O)c1ccc(I)c([N+](=O)[O-])c1 [Iniparib] is listed as < 0	< 0	< 0	< 0	< 0	< 0	< 0	< 0
